{
  "source": "PubChem BioAssay AID540256",
  "about": "(National Center for Advancing Translational Sciences (NCATS), 2011)",
  "note": "“And” between values parts separate entries of the source, which are not always exact repeats. Equal entries are not always repeated. Out of some 300,000 compounds screened, about 3,700 (1.2%) were called active. The shares of active, inactive and inconclusive entries below differ from those in the screen. Calls come from the whole dose curve; tested in HEK293 cells. Potencies of inconclusive entries are doubtful fits and often do not repeat. % is set by controls: 0 for no effect and ±100 for the full control effect; potency is the fitted concentration of half-maximal effect.",
  "data": [
    {"assay": "qHTS for Inhibitors of binding or entry into cells for Lassa Virus; note: nearly all actives have a fitted effect of over 50% in size", "details": "Lassa virus pseudotype entry inhibition, cell reporter; activity change, negative = inhibition: at 37.9 µM (top of the series) unless noted", "values": [
      {"smiles": "CCC1(C)Cc2c(sc3nc(NN)n(C)c(=O)c23)CO1", "note": "(configuration not stated)", "Potency": "inconclusive: 20 µM [inhibitor, partial curve, poor fit]"},
      {"smiles": "Cc1cccc(NC(=O)CS(=O)(=O)c2nc(-c3ccccc3)cn2-c2cccc(Cl)c2)c1C", "activity change, negative = inhibition": "inactive: -17.7% [at 46.1 µM]"},
      {"smiles": "Cc1cnc(NC(=O)c2cccs2)s1", "Potency": "inconclusive: 3.16 µM [inhibitor, single point]"},
      {"smiles": "O=C(COC(=O)CC(c1ccccc1)c1ccccc1)NCc1ccccc1", "Potency": "active: 11.6 µM"},
      {"smiles": "COc1ccc(OC)c(NC(=O)CN2CCc3ccccc3C2)c1", "Potency": "inconclusive: 39.8 µM [inhibitor, partial curve, poor fit]"},
      {"smiles": "COc1ccc2c(c1)cc(C)c1nnc(SCC(=O)N3CCN(C(=O)c4ccco4)CC3)n12", "activity change, negative = inhibition": "inactive: 0%"},
      {"smiles": "Cc1cccc(N2CCN(Cc3nc(-c4ccccc4Cl)oc3C)CC2)n1", "activity change, negative = inhibition": "inactive: -14.9% [at 46.1 µM]"},
      {"smiles": "C=CCn1c(O)c(/C(C)=N/N2CCCCC2)c(=O)[nH]c1=O", "activity change, negative = inhibition": "inactive: 0.608%"},
      {"smiles": "CCCS(=O)(=O)c1c(S(=O)(=O)CCC)c2ccccn2c1C(=O)OC", "activity change, negative = inhibition": "inactive: -7.73%"},
      {"smiles": "Oc1ccc(Cl)cc1/C=C/c1ccc2cccc(O)c2n1", "activity change, negative = inhibition": "inactive: -15.8% [at 46.1 µM]"},
      {"smiles": "C=CCNC(=O)/C(=C/c1cccc([N+](=O)[O-])c1)NC(=O)c1ccccc1", "Potency": "inconclusive: 35.5 µM [inhibitor, partial curve, poor fit]"},
      {"smiles": "C=CCn1c(COc2ccc(Cl)cc2)nnc1SCc1ccc(C#N)cc1", "Potency": "inconclusive: 25.9 µM [inhibitor, single point]"},
      {"smiles": "COc1ccccc1CN1C(=O)CN(C2CCCCCC2)C(=O)C1c1ccc(C)cc1", "note": "(configuration not stated)", "Potency": "inconclusive: 5.62 µM [inhibitor, single point]"},
      {"smiles": "COc1ccc(CCNC(=O)COc2ccc(S(=O)(=O)NC(C)C)cc2)cc1OC", "Potency": "inconclusive: 11.2 µM [inhibitor, single point]"},
      {"smiles": "CC1(C)O[C@H]2[C@@H](O1)[C@@H](C(=O)Nc1ccc(F)c(F)c1)O[C@@H]1OC(C)(C)O[C@@H]12", "Potency": "inconclusive: 6.31 µM [activator, partial curve, poor fit]"},
      {"smiles": "COc1ccc(-c2cc(-c3ccccc3)c(C#N)c(S(C)(=O)=O)n2)cc1", "Potency": "inconclusive: 29.1 µM [inhibitor, single point]"},
      {"smiles": "O=c1[nH]c(=O)n(Cc2ccco2)c2c1C(C(F)(F)F)(C(F)(F)F)N=C(c1ccc(F)cc1)N2", "Potency": "inconclusive: 29.1 µM [inhibitor, single point]"},
      {"smiles": "CCc1cccc(C)c1NC(=O)CSc1nc2ccccc2nc1N1CCOCC1", "Potency": "inconclusive: 4.47 µM [inhibitor, full curve, poor fit]"},
      {"smiles": "COc1ccc(-n2ncc3c(SCC(=O)N4CCN(c5ccccc5OC)CC4)ncnc32)cc1", "Potency": "inconclusive: 14.6 µM [inhibitor, partial curve, poor fit]"},
      {"smiles": "COc1ccc2c(c1OC)C(=O)N(c1cccc(C(F)(F)F)c1)C2", "Potency": "inconclusive: 0.82 µM [activator, full curve]"},
      {"smiles": "N=c1n(CCN2CCCCC2)c2ccccc2n1CC(O)COc1ccc(Cl)cc1Cl", "note": "(configuration not stated)", "Potency": "inconclusive: 35.5 µM [inhibitor, single point]"},
      {"smiles": "Cc1ccc2c(=O)cc(C(=O)N(Cc3ccc(N(C)C)cc3)C3CCS(=O)(=O)C3)oc2c1", "note": "(configuration not stated)", "activity change, negative = inhibition": "inactive: -21.3% [at 46.1 µM]"},
      {"smiles": "CCCN(CCC)CCCNC(=O)c1cc2cc3ccc(Cl)cc3nc2o1", "Potency": "inconclusive: 11.2 µM [activator, partial curve, poor fit]"},
      {"smiles": "Cc1ccc(CN2CCN(CC(=O)NCc3ccc(Cl)cc3)C2=O)cc1", "Potency": "inconclusive: 35.5 µM [inhibitor, single point]"},
      {"smiles": "COc1ccc(N=C2NN=C(c3c(C)[nH]c4ccccc34)CS2)cc1", "Potency": "inconclusive: 10 µM [inhibitor, partial curve, poor fit]"},
      {"smiles": "CCN(CCNC(=O)Nc1ccc(Cl)cc1)c1ccccc1", "Potency": "active: 15.8 µM"},
      {"smiles": "CCc1ccc(NC(=O)Nc2cccs2)cc1", "Potency": "inconclusive: 35.5 µM [inhibitor, single point]"},
      {"smiles": "O=C(CNC(=O)c1ccccc1Br)NNC(=O)c1cccs1", "Potency": "inconclusive: 0.562 µM [inhibitor, partial curve, poor fit]"},
      {"smiles": "Cc1ccc(Cl)cc1NC(=S)N(Cc1ccccc1)Cc1cccnc1", "Potency": "inconclusive: 0.447 µM [inhibitor, single point]"},
      {"smiles": "COc1ccc(-c2cc(=NCCCCCC(=O)O)c3cc(C)ccc3o2)cc1", "Potency": "inactive"},
      {"smiles": "CSc1ccc(CCNC(=O)CN2C(=O)c3cccnc3Oc3ccc(C)cc32)cc1", "Potency": "inactive and inconclusive: 12.6 µM [inhibitor, partial curve, poor fit]"},
      {"smiles": "CC1CCN(S(=O)(=O)c2ccc(Oc3ccc([N+](=O)[O-])cc3)cc2)CC1", "Potency": "inconclusive: 23.1 µM [inhibitor, single point]"},
      {"smiles": "COc1ccc(-c2ncncc2-c2ccc(OC)c(OC)c2)c(O)c1", "Potency": "inconclusive: 0.708 µM [inhibitor, single point]"},
      {"smiles": "CC(C)N1CCN(Cc2cnc(-c3ccccc3)s2)CC1CCO", "note": "(configuration not stated)", "Potency": "inconclusive: 28.2 µM [activator, partial curve, poor fit]"},
      {"smiles": "O=C(C1CC(c2ccc(F)cc2)=NO1)N1CCCCC1", "note": "(configuration not stated)", "Potency": "inconclusive: 0.366 µM [activator, full curve, poor fit]"},
      {"smiles": "Cc1cccc(C)c1NC(=O)C1=C(O)c2ccccc2N(C)S1(=O)=O", "activity change, negative = inhibition": "inactive: 2.2%"},
      {"smiles": "O=C1NC(=Nc2ccccc2)SC1(CO)CO", "activity change, negative = inhibition": "inactive: 14.9%"},
      {"smiles": "Cc1ccc(NC(=O)C2C3C=CC(O3)C2C(=O)O)c(C)c1", "note": "(configuration not stated)", "activity change, negative = inhibition": "inactive: 11.2% [at 46.1 µM]"},
      {"smiles": "C=CCn1c(C)c(C(C)=O)c(N2CCN(C(c3ccccc3)c3ccccc3)CC2)nc1=S", "Potency": "inconclusive: 28.2 µM [inhibitor, single point]"},
      {"smiles": "COc1ccc(-n2cnnc2SCC(=O)N(C)c2ccccc2)cc1", "Potency": "inconclusive: 2.82 µM [inhibitor, full curve, poor fit]"},
      {"smiles": "Cc1ccc(N(C)S(=O)(=O)c2nnc(NC(=O)C3CCCCC3)s2)cc1", "Potency": "inconclusive: 35.5 µM [activator, partial curve, poor fit]"},
      {"smiles": "Cc1ccc(CCNC(=O)c2ccc(CSCc3ccccc3Cl)o2)cc1", "activity change, negative = inhibition": "inactive: -1.06% [at 46.1 µM]"}
    ]}
  ]
}
